Laboratory results from patent US20250381249A1, “COMBINATION TREATMENT FOR RESISTANT HYPERTENSION” (Mayo Foundation for Medical Education and Research, priority 2018, published 2025).

How the values were obtained:
Format in all cases: in vivo, rat
[1] = system: spontaneously hypertensive rats (SHR); assay: Individual and combined effects of MANP and Fs on BP and aldosterone in spontaneously hypertensive rats (Example 1)
Procedure: Studies were conducted to examine the individual and combined effects of MANP (SEQ ID NO:3) and Fs on BP and aldosterone stimulation in spontaneously hypertensive rats (SHR), the most studied and widely used genetic model of human essential hypertension (Lerman et al. (2019) Hypertension 73(6):e87-e120). SHR (n=32) were randomized into ten groups: • Group 1—treated with vehicle saline (Veh); • Group 2—treated with 1 mg/kg Fs alone (Fs1); • Group 3—treated with 5 mg/kg Fs alone (Fs5); • Group 4—treated with 10 mg/kg Fs alone (Fs10); • Group 5—treated with 100 pmol/kg/min MANP alone (MANP100); • Group 6—treated with 300 pmol/kg/min MANP alone (MANP300); • Group 7—treated with 600 pmol/kg/min MANP alone (MANP600); • Group 8—treated with Fs5+MANP300; • Group 9—treated with Fs10+MANP300; and • Group 10—treated with Fs10+MANP600. Fs was given as a single bolus that, in groups 8, 9, and 10, was followed by a 60-minute infusion of MANP.

[2] = system: SHR; assay: Acute study in SHR, neurohumoral analysis (plasma and urinary cGMP, aldosterone)
Procedure: Acute Study Protocol in SHR: The cardiorenal and neurohumoral actions of MANP, Fs, or their combination were investigated in the genetic model of hypertension in male SHR (n=6 in each group). Rats were anesthetized in an induction chamber with inhaled Isoflurane 2.5%. During this brief state of anesthesia, the rats were administered IP Inactin 100 mg/kg to maintain anesthesia. An oxygen mask was used until the end of the experiment. The carotid artery was cannulated for arterial pressure measurements and the right jugular vein was cannulated for infusions. Pressures were recorded and analyzed digitally (Sonometrics, London, Ontario, Canada). […] Neurohormonal and Electrolyte Analysis: Plasma ANP was measured by radioimmunoassay (Phoenix Pharmaceuticals) as an assessment of MANP, as the ANP RIA fully detects MANP (Burnett et al. (1986) Science 231(4742):1145-1147). Plasma and urinary cGMP (Enzo Life Sciences) and aldosterone (DRG International, Springfield, NJ) were determined by ELISA. Inulin concentrations were measured using the anthrone method, as described elsewhere (Fuhr et al. (1955) Klin. Wochenschr 33:729-730). GFR was calculated by inulin clearance. Electrolytes were measured by flame photometry (IL943, Instrumentation Laboratory, UK). […] Statistical Analysis: Values are expressed as mean±standard error of mean (SEM). […]

[3] = Acute study in SHR, plasma ANP radioimmunoassay as assessment of MANP; settings: mean±SEM
Procedure: Acute Study Protocol in SHR: The cardiorenal and neurohumoral actions of MANP, Fs, or their combination were investigated in the genetic model of hypertension in male SHR (n=6 in each group). Rats were anesthetized in an induction chamber with inhaled Isoflurane 2.5%. During this brief state of anesthesia, the rats were administered IP Inactin 100 mg/kg to maintain anesthesia. An oxygen mask was used until the end of the experiment. The carotid artery was cannulated for arterial pressure measurements and the right jugular vein was cannulated for infusions. Pressures were recorded and analyzed digitally (Sonometrics, London, Ontario, Canada). Via a small incision in the lower abdominal wall, the bladder was cannulated for urine sampling.
Immediately after preparation, a 30-minute equilibration period was started with intravenous inulin infusion. […] After baseline measurements, rats were randomly assigned to ten groups: • Group 1—treated with MANP100; • Group 2—treated with MANP300; • Group 3—treated with MANP600; • Group 4—treated with Fs1; • Group 5—treated with Fs5; • Group 6—treated with Fs10; • Group 7—treated with MANP300+Fs5; • Group 8—treated with MANP300+Fs10; • Group 9—treated with MANP600+Fs10; and • Group 10—treated with inulin, normal saline, or inulin and normal saline. For Groups 1-3, after a 15-minute lead-in of MANP infusion, MANP was continuously infused for a total of 60 minutes. Animals in Groups 4-6 received a single intravenous (IV) bolus administration of Fs. […]
Neurohormonal and Electrolyte Analysis: Plasma ANP was measured by radioimmunoassay (Phoenix Pharmaceuticals) as an assessment of MANP, as the ANP RIA fully detects MANP (Burnett et al. (1986) Science 231(4742):1145-1147). Plasma and urinary cGMP (Enzo Life Sciences) and aldosterone (DRG International, Springfield, NJ) were determined by ELISA. Inulin concentrations were measured using the anthrone method, as described elsewhere (Fuhr et al. (1955) Klin. Wochenschr 33:729-730). GFR was calculated by inulin clearance. Electrolytes were measured by flame photometry (IL943, Instrumentation Laboratory, UK). […]

- Plasma aldosterone ([1]; low and high dose Fs, 60 minutes): tended to increase
Compound: NS(=O)(=O)c1cc(C(=O)O)c(NCc2ccco2)cc1Cl [Fs, furosemide]
- sodium excretion ([1]; Fs, MANP and Fs+MANP groups, p<0.05): enhanced
- Plasma cGMP ([1]; over 60 minutes, all dose groups): not changed
- Plasma cGMP ([2]; Fs bolus groups, baseline, 30 and 60 minutes): did not change
- Urinary cGMP excretion compared to vehicle (control) ([2]; Fs groups, 60 minutes): no significant increase
- Plasma ANP ([3]; 60 min after Fs 1 mg/kg IV bolus): 14 ± 1 pg/mL
- Plasma ANP ([3]; 60 min after Fs 5 mg/kg IV bolus): 16 ± 3 pg/mL
- Plasma ANP ([3]; 60 min after Fs 10 mg/kg IV bolus): 19 ± 3 pg/mL
